Here are results for 1 substance from paper PMC7738173.

Sequences of proteins named here, by UniProt entry; tags and fusion partners are left off.
UniProt O95835: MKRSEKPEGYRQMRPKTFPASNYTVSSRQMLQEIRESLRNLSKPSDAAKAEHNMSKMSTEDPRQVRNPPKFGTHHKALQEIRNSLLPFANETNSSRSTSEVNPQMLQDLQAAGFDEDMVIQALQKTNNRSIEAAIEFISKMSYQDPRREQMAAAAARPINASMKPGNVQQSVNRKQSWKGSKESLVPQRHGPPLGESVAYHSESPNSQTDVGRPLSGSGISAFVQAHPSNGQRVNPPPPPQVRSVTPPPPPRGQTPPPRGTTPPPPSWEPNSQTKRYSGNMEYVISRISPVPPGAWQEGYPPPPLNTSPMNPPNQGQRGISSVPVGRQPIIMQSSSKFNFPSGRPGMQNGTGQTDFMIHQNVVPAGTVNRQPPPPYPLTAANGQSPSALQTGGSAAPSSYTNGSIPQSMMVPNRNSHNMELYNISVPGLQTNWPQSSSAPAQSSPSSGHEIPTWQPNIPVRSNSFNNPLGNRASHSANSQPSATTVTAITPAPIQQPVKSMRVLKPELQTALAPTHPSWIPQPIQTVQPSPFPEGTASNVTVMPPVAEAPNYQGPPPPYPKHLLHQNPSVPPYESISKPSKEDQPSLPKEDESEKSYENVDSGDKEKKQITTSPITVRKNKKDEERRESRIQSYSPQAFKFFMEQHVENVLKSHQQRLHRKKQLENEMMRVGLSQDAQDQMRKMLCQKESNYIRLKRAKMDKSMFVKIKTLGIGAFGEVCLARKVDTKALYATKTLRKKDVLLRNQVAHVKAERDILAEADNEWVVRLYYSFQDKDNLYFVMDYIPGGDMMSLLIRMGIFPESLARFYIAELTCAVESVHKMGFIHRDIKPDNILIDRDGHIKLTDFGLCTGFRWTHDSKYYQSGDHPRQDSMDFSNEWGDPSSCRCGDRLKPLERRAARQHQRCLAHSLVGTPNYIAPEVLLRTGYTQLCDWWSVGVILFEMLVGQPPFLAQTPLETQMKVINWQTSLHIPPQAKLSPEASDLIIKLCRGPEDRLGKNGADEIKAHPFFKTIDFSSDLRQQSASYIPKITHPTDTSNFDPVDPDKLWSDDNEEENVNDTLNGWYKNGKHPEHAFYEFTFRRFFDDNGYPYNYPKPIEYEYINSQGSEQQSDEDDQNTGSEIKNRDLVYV
UniProt P27816: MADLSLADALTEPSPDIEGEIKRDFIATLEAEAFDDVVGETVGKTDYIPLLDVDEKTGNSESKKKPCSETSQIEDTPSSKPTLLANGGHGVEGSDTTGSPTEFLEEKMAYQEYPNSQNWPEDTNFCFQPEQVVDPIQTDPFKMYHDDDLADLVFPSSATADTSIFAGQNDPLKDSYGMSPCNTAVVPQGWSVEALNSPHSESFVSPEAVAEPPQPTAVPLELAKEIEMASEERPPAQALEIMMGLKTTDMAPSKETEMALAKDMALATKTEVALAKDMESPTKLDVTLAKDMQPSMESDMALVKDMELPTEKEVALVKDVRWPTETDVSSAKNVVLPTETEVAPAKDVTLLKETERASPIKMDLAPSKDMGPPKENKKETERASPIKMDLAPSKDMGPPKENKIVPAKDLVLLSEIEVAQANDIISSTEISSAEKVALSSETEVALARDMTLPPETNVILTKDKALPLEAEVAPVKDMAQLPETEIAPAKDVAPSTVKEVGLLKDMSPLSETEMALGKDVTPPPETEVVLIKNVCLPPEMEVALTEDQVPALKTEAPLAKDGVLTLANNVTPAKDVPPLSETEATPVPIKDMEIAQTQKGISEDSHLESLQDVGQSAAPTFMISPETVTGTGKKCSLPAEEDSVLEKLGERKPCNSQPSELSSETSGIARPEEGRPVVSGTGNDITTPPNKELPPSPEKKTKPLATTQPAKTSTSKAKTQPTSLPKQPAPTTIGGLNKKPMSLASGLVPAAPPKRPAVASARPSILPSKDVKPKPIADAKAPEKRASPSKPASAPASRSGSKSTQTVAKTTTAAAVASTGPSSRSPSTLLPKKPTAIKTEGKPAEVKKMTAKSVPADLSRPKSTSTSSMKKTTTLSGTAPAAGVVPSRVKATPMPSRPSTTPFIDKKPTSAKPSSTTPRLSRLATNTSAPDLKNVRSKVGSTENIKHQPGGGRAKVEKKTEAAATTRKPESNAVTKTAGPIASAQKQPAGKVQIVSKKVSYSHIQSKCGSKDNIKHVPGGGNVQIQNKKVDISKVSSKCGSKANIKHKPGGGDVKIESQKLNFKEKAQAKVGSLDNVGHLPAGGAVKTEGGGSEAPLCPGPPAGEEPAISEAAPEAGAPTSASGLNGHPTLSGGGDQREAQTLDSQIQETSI

The test deals with GFP-LATS1 (human) (UniProt O95835). Briefly: affinity purification with mass spectrometry; GFP-LATS1 transiently expressed in HeLa cells, serum starved, untreated or treated with FasL (50 nM) or etoposide (50 uM) for 16 h; lysis in 20 mM HEPES pH 7.5, 150 mM NaCl, 1% NP-40; precipitated with GFP-trap_A; GFP alone as control IP; LC-MS/MS, MaxQuant label-free quantitation.

No constants are given. Whether binding was seen depends on the method and setting. In cells and extracts the contact can be indirect. A yes stands for co-enrichment or nearness to the bait. Other partners may have been found.

Turning to MAP4 (from UniProt P27816 1-1152), the binding result is “binds”.
